In PubChem BioAssay AID248 (DTP/NCI, 2004):
The list does not hold the whole screen: it gathers tests that were run many times, whatever their T/C, doses with no T/C, and many T/C values between a quarter and a half above the control. Other doses and runs of a compound stand elsewhere. T/C: endpoint of the treated group in % of that of the vehicle group. Some doses have a count of surviving animals in place of a T/C: the source holds a T/C of zero for them, seemingly a mark for toxic or unscored doses. Some survivor counts are full or nearly so, which does not show that the dose was tolerated: survival well below the control is almost never listed, so the zero probably covers shortened survival too. Survivors were counted at the toxicity check, usually on the fifth day, unless a day is given; later deaths do not show. Schedules are NCI's codes, taken here to give the interval after Q, in days (D) or hours (H), and the number of doses after X. For survival time, this PubChem deposit counts one and a half times the control or more as active, and values a quarter to a half above the control carry no call in these data; other NCI protocols may use other cut-offs. Counts like (3×) stand for listed records that agree. Some entries were tested several times; the results are listed from low to high.

Test system: L1210 leukemia ip in BDF1 mice, survival T/C
Experiment: NCI In Vivo Anticancer Drug Screen. Data for tumor model L1210 Leukemia (intraperitoneal) in B6D2F1 (BDF1) mice
Details: T/C endpoint: median survival time, vehicle: saline, higher T/C = longer survival

## Nc1ncn(C2OC(CO)C(O)C2O)c(=O)n1 (stereo not drawn)
dose: 5.0 mg/kg/injection, schedule: Q04DX003 (ip), evaluated on day 5
  T/C: 137, 161, 168, 170 (2×), 175 % of control
dose: 5.0 mg/kg/injection, schedule: Q04DX003 (ip), evaluated on day 8
  T/C: 144 % of control
dose: 5.0 mg/kg/injection, schedule: Q04DX003 (ip), evaluated on day 30
  T/C: 166 and 168 % of control
dose: 5.0 mg/kg/injection, schedule: Q04DX003 (ip), evaluated on day 35
  T/C: 166 % of control
dose: 5.0 mg/kg/injection, schedule: Q04DX003 (ip), evaluated on day 40
  T/C: 177 % of control
dose: 5.0 mg/kg/injection, schedule: Q04DX003 (ip), evaluated on day 60
  T/C: 140 % of control
dose: 6.0 mg/kg/injection, schedule: Q04DX003 (ip), evaluated on day 5
  T/C: 170 % of control
dose: 6.0 mg/kg/injection, schedule: Q04DX003 (ip), evaluated on day 33
  T/C: 155 and 170 % of control
dose: 6.0 mg/kg/injection, schedule: Q04DX003 (ip), evaluated on day 40
  T/C: 163 % of control
dose: 8.4 mg/kg/injection, schedule: Q04DX003 (ip), evaluated on day 5
  T/C: 149, 219, 225 % of control
dose: 8.4 mg/kg/injection, schedule: Q04DX003 (ip), evaluated on day 30
  T/C: 218 and 227 % of control
dose: 8.4 mg/kg/injection, schedule: Q04DX003 (ip), evaluated on day 60
  T/C: 155 % of control
dose: 10.0 mg/kg/injection, schedule: Q01DX001 (ip), evaluated on day 5
  T/C: 130 % of control
dose: 10.0 mg/kg/injection, schedule: Q01DX001 (ip), evaluated on day 40
  T/C: 133 % of control
dose: 10.0 mg/kg/injection, schedule: Q04DX003 (ip), evaluated on day 5
  T/C: 229, 230, 231, 260 % of control
dose: 10.0 mg/kg/injection, schedule: Q04DX003 (ip), evaluated on day 8
  T/C: 160 % of control
dose: 10.0 mg/kg/injection, schedule: Q04DX003 (ip), evaluated on day 35
  T/C: 222 % of control
dose: 10.0 mg/kg/injection, schedule: Q04DX003 (ip), evaluated on day 40
  T/C: 222 and 238 % of control
dose: 12.0 mg/kg/injection, schedule: Q01DX009 (ip)
  survivor count: 10 of 10
dose: 14.0 mg/kg/injection, schedule: Q04DX003 (ip), evaluated on day 5
  T/C: 128, 185, 207 % of control
dose: 14.0 mg/kg/injection, schedule: Q04DX003 (ip), evaluated on day 30
  T/C: 181 and 211 % of control
dose: 14.0 mg/kg/injection, schedule: Q04DX003 (ip), evaluated on day 60
  T/C: 130 % of control
dose: 17.0 mg/kg/injection, schedule: Q04DX003 (ip), evaluated on day 5
  T/C: 138 % of control
dose: 17.0 mg/kg/injection, schedule: Q04DX003 (ip), evaluated on day 40
  T/C: 131 % of control
dose: 20.0 mg/kg/injection, schedule: Q01DX001 (ip), evaluated on day 5
  T/C: 141 % of control
dose: 20.0 mg/kg/injection, schedule: Q01DX001 (ip), evaluated on day 40
  T/C: 144 % of control
dose: 20.0 mg/kg/injection, schedule: Q04DX003 (ip), evaluated on day 5
  T/C: 237, 252, 270 % of control
dose: 20.0 mg/kg/injection, schedule: Q04DX003 (ip), evaluated on day 8
  T/C: 140 % of control
dose: 20.0 mg/kg/injection, schedule: Q04DX003 (ip), evaluated on day 35
  T/C: 250 % of control
dose: 20.0 mg/kg/injection, schedule: Q04DX003 (ip), evaluated on day 40
  T/C: 244 % of control
dose: 23.0 mg/kg/injection, schedule: Q04DX003 (ip), evaluated on day 5
  T/C: 98, 103, 107 % of control
dose: 23.0 mg/kg/injection, schedule: Q04DX003 (ip), evaluated on day 30
  T/C: 100 % of control (2×)
dose: 23.0 mg/kg/injection, schedule: Q04DX003 (ip), evaluated on day 60
  T/C: 110 % of control
dose: 24.0 mg/kg/injection, schedule: Q04DX003 (ip)
  T/C: 130 % of control
dose: 28.0 mg/kg/injection, schedule: Q04DX003 (ip)
  survivor count: 8 of 8
dose: 39.0 mg/kg/injection, schedule: Q04DX003 (ip), evaluated on day 5
  T/C: 78 and 148 % of control
dose: 39.0 mg/kg/injection, schedule: Q04DX003 (ip), evaluated on day 30
  T/C: 143 % of control
dose: 39.0 mg/kg/injection, schedule: Q04DX003 (ip)
  survivor count: 8 of 8
dose: 40.0 mg/kg/injection, schedule: Q04DX003 (ip), evaluated on day 5
  T/C: 102, 120, 186 % of control
dose: 40.0 mg/kg/injection, schedule: Q04DX003 (ip), evaluated on day 8
  T/C: 136 % of control
dose: 40.0 mg/kg/injection, schedule: Q04DX003 (ip), evaluated on day 35
  T/C: 116 % of control
dose: 40.0 mg/kg/injection, schedule: Q04DX003 (ip), evaluated on day 40
  T/C: 105 % of control
dose: 47.0 mg/kg/injection, schedule: Q04DX003 (ip)
  survivor count: 8 of 8
